This assay relates to C. albicans CA-1. Kind of assay: standard broth dilution method, AmB MIC. As to conditions: Candida albicans, CA1, strain CA-1. The format is cell-based. Here is the method:
C. albicans strain and medium. C. albicans CA-1 isolate obtained from the culture collection of Diane Brawner (Microbiology Department, Montana State University)(14). The strain was stored at −80° C. Planktonic cells were cultured in 2% YEPD medium (2% glucose, 1% bacto yeast extract, and 2% bacto peptone). The solid agar medium for the CFU assay was 1% glucose, 0.5% bacto yeast extract, 2% bacto agar, 0.1% ammonium sulfate dissolved in 20% tap water and 80% D.I. water.
AmB treatment. AmB was from Biosource International Inc. (Fungizone with 0.00205% sodium deoxycholate solubilizing agent). A standard broth dilution method was used to assess the AmB MlC of CA-1, with ATCC 24433 used as a reference strain (32). AmB treatment of planktonic cells and shear-removed biofilm was preformed in 1.5-ml centrifuge tubes. The tubes contained a total working volume of 450 μl. AmB dissolved in 200 μl of 0.1 M PBS (pH 7.0), and cells resuspended in 250 μl of PBS adjusted to an optical density of 0.05 (A660) were added to the 1.5-ml tube. After more than 10 preliminary experiments, the time between recovery of the shear-removed biofilm in the petri dish and exposure to AmB was reduced to approximately 5 min. The positive controls had no AmB, and the negative controls had no cells. […] This enabled recording of absorbance data for the metabolic indicator in real time without perturbing the well contents. […]
Background: In broth dilution the organism is exposed to a series of concentrations in liquid medium.

By MIC is commonly meant the smallest concentration in the dilution series that meets the test's criterion for growth inhibition. A low value points to inhibition by little substance.

Values after ≈ are worked out from the molar mass of the structure shown.

For the compound `C[C@@H]1[C@H](O)[C@@H](C)/C=C/C=C/C=C/C=C/C=C/C=C/C=C/[C@H](O[C@@H]2O[C@H](C)[C@@H](O)[C@H](N)[C@@H]2O)C[C@@H]2O[C@](O)(C[C@@H](O)C[C@@H](O)[C@H](O)CC[C@@H](O)C[C@@H](O)CC(=O)O[C@H]1C)C[C@H](O)[C@H]2C(=O)O` [AmB, amphotericin B], inhibition of growth (MIC) required 0.5 µg/mL (≈ 0.541 µM).

The values above are taken from US20070238146A1, “Kinetic metabolic assay for antifungal susceptibility testing” (priority 2006, published 2007).
